The source of these data is paper PMC3145769.

Sequences of proteins named here, by UniProt entry; tags and fusion partners are left off. A change or cut given only in a name is not applied to a line headed by its entry.
UniProt P51943: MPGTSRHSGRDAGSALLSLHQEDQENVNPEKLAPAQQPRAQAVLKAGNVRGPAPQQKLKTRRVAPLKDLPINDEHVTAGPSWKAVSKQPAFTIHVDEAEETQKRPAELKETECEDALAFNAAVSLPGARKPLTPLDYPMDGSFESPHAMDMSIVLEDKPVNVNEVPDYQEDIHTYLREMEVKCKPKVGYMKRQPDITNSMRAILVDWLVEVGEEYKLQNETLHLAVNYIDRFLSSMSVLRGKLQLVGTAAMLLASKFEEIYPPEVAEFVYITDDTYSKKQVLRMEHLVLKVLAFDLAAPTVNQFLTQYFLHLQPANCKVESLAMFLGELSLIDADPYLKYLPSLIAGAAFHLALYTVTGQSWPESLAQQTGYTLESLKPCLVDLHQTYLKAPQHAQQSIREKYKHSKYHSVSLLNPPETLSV
UniProt P38936: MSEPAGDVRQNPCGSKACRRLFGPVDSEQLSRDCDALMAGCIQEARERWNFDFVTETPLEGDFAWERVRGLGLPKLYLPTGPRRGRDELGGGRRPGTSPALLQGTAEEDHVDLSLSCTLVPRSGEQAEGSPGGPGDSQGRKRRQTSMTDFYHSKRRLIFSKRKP
UniProt P11440: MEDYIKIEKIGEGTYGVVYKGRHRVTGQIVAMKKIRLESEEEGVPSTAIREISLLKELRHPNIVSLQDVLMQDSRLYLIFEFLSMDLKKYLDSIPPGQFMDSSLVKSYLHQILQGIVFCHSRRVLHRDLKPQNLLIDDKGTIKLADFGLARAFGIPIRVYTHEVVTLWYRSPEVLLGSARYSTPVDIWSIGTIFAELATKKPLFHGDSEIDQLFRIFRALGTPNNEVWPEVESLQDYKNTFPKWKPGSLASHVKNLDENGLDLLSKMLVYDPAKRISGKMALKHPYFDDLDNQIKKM
UniProt P46414: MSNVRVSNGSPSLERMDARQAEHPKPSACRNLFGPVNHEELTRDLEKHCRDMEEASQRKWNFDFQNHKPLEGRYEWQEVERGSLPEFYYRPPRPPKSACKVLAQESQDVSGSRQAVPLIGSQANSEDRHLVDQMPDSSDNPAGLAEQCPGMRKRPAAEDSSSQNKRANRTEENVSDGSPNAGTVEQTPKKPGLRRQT

No constants are given. Whether binding was seen depends on the method and setting. Binding seen in cells or lysates may run through a third protein.

Assay [1] addresses Cyclin A2 Triple (M200A, L204A, W207A), C-terminally fused to 3 Flag tags (mouse) (UniProt P51943). The experiment in a line: co-IP; anti-Flag M2 affinity gel on extracts of human HEK 293 cells transfected with mouse 3xFlag Cyclin A2 alleles; endogenous partners detected by Western blot; densitometry (ImageQuantTL) normalised to immunoprecipitated Cyclin A2, percent of WT; repeated 3 times.

Assay [2] has as its target Cyclin A2 E180A, C-terminally fused to 3 Flag tags (mouse) (UniProt P51943). The experiment in a line: co-IP; anti-Flag M2 affinity gel on extracts of NIH3T3 cells transfected with 3xFlag Cyclin A2 alleles; endogenous partners detected by Western blot; densitometry (ImageQuantTL) normalised to immunoprecipitated Cyclin A2, percent of WT; repeated 5 times. On the technique in general: In western blotting, separated proteins are transferred to a membrane and probed.

Assay [3] has as its target Cyclin A2 Triple (M200A, L204A, W207A), C-terminally fused to 3 Flag tags (mouse) (UniProt P51943). The description is as above.

As for “p21 (endogenous, HEK 293) (from UniProt P38936 1-164)”, the binding entry in assay [1] is “no binding”.

Regarding “CDK1 (endogenous, NIH3T3) (from UniProt P11440 1-297) (enzyme)”, the binding result in assay [2] and in assay [3] was “no binding” in each case. Regarding “p27 (endogenous, NIH3T3) (from UniProt P46414 1-197)”, the binding result in assay [2] and in assay [3] was “no binding” each time.
